No constants are given. Whether binding was seen depends on the method and setting. Some results given as binding are weak or reduced against the parent protein; the word gives no strength. Where a sequence is shown, tags or fusion partners need not be part of it.

By UniProt entry, the sequences of proteins in these tests, tags left out. Where a name states a change or a piece, a line headed by the entry shows the natural chain unless it says otherwise. Chains listed by the source or under a name are the forms on record and can include a tag or linker. Residues count along the entry.
UniProt Q9P7T4: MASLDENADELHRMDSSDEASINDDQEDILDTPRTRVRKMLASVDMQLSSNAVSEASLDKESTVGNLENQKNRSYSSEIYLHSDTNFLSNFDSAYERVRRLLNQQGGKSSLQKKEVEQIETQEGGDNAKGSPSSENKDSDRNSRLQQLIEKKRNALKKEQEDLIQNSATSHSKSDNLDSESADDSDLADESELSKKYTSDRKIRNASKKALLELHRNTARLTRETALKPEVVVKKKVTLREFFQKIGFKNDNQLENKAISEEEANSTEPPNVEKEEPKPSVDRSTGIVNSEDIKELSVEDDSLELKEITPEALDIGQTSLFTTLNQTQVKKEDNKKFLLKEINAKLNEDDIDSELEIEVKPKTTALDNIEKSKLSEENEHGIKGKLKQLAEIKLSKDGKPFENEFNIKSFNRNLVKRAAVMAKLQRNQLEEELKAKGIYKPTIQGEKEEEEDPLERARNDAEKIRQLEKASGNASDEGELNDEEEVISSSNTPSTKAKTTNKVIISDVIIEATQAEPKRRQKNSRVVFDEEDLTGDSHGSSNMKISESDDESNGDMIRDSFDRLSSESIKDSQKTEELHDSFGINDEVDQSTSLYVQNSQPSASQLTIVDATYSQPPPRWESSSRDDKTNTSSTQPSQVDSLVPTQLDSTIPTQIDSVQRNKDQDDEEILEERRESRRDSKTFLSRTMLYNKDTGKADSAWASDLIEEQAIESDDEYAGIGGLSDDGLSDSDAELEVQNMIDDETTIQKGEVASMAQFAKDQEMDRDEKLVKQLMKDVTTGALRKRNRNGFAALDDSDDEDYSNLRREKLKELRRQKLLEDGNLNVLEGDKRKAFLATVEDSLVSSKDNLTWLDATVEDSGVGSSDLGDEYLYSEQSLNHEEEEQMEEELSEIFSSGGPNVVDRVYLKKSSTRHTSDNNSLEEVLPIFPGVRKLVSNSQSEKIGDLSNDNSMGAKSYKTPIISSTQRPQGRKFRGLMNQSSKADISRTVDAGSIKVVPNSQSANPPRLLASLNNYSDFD
Mrc1-M (248-756 a.a., middle region) fused to the Gal4 DNA-binding domain: residues 248-756 of Q9P7T4
Mrc1-C (500-1019 a.a., C-terminal region) fused to the Gal4 DNA-binding domain: residues 500-1019 of Q9P7T4

Data on one molecule can be found in doi:10.1101/2023.03.28.534615.

Common to all, as to experiment: two-hybrid
For assay [1], the target named is Mrc1-M (248-756 a.a., middle region) fused to the Gal4 DNA-binding domain (S. pombe) (UniProt Q9P7T4).
In assay [2] the target is Full-length Mrc1 (Mrc1-F) fused to the Gal4 DNA-binding domain (S. pombe) (UniProt Q9P7T4).
Assay [3] deals with Mrc1-C (500-1019 a.a., C-terminal region) fused to the Gal4 DNA-binding domain (S. pombe) (UniProt Q9P7T4).

B1: Full-length Clr3 fused to the Gal4 activation domain (protein, UniProt P56523 1-687)
chain: MLASNSDGASTSVKPSDDAVNTVTPWSILLTNNKPMSGSENTLNNESHEMSQILKKSGLCYDPRMRFHATLSEVDDHPEDPRRVLRVFEAIKKAGYVSNVPSPSDVFLRIPAREATLEELLQVHSQEMYDRVTNTEKMSHEDLANLEKISDSLYYNNESAFCARLACGSAIETCTAVVTGQVKNAFAVVRPPGHHAEPHKPGGFCLFNNVSVTARSMLQRFPDKIKRVLIVDWDIHHGNGTQMAFYDDPNVLYVSLHRYENGRFYPGTNYGCAENCGEGPGLGRTVNIPWSCAGMGDGDYIYAFQRVVMPVAYEFDPDLVIVSCGFDAAAGDHIGQFLLTPAAYAHMTQMLMGLADGKVFISLEGGYNLDSISTSALAVAQSLLGIPPGRLHTTYACPQAVATINHVTKIQSQYWRCMRPKHFDANPKDAHVDRLHDVIRTYQAKKLFEDWKITNMPILRDSVSNVFNNQVLCSSNFFQKDNLLVIVHESPRVLGNGTSETNVLNLNDSLLVDPVSLYVEWAMQQDWGLIDINIPEVVTDGENAPVDILSEVKELCLYVWDNYVELSISKNIFFIGGGKAVHGLVNLASSRNVSDRVKCMVNFLGTEPLVGLKTASEEDLPTWYYRHSLVFVSSSNECWKKAKRAKRRYGRLMQSEHTETSDMMEQHYRAVTQYLLHLLQKARPTSQ
For B1, the binding entry in assay [1] is “no binding”; in assay [2] it was “binds”; in assay [3], “binds”.
